PubChem BioAssay AID1259425 – University of Nebraska Medical Center, 2018

- Assay: 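Find knockdowns that reproduce the gene expression pattern seen when KSR1 is lost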 (primary screen)
- System: HCT116 human colon cancer cells
- Reagents: siRNA pool against human genes, 50 nM siRNA
- Read-out: 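mRNA of six signature genes measured together by branched-DNA assay after 50 nM siRNA pool, blank removed, divided by geometric mean of two housekeeping genes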
- Reading the numbers: BNIP3L mRNA: higher = more BNIP3L transcript after knockdown; NDRG1 mRNA: higher = more NDRG1 transcript after knockdown; BNIP3 mRNA: higher = more BNIP3 transcript after knockdown; ALDOC mRNA: higher = more ALDOC transcript after knockdown; ACSL5 mRNA: higher = more ACSL5 transcript after knockdown
This is one part, drawn at random, of about 14,000 reagents tested. Not given: the time to read-out.

| gene knocked down | BNIP3L mRNA, set 1 | NDRG1 mRNA, set 1 | BNIP3 mRNA, set 1 | ALDOC mRNA, set 1 | ACSL5 mRNA, set 1 |
| --- | --- | --- | --- | --- | --- |
| H3-4 (H3.4 histone, cluster member) | 0.208 | 0.381 | 0.559 | 0.0216 | 0.418 |
| NPFFR1 (neuropeptide FF receptor 1) | 0.146 | 0.725 | 0.305 | 0.0386 | 0.228 |
| TSPAN7 (tetraspanin 7) | 0.113 | 0.168 | 0.281 | 0.0371 | 0.142 |
| HECW1 | 0.0341 | 0.0743 | 0.237 | 0.0334 | 0.0912 |
| ARID3A (AT-rich interaction domain 3A) | 0.214 | 0.404 | 1.06 | 0.0545 | 0.126 |
| SMPD4 (sphingomyelin phosphodiesterase 4) | 0.168 | 0.287 | 0.439 | 0.034 | 0.113 |
| TAP1 (transporter 1, ATP binding cassette subfamily B member) | 0.0692 | 0.405 | 0.265 | 0.0444 | 0.358 |

No new results follow: entries from further up.
| gene knocked down | BNIP3L mRNA, set 1 | NDRG1 mRNA, set 1 | BNIP3 mRNA, set 1 | ALDOC mRNA, set 1 | ACSL5 mRNA, set 1 |
| --- | --- | --- | --- | --- | --- |
| HECW1 | 0.0341 | 0.0743 | 0.237 | 0.0334 | 0.0912 |
| ARID3A (AT-rich interaction domain 3A) | 0.214 | 0.404 | 1.06 | 0.0545 | 0.126 |

Next records follow.
| gene knocked down | BNIP3L mRNA, set 1 | NDRG1 mRNA, set 1 | BNIP3 mRNA, set 1 | ALDOC mRNA, set 1 | ACSL5 mRNA, set 1 |
| --- | --- | --- | --- | --- | --- |
| ZNF154 (zinc finger protein 154) | 0.0816 | 0.214 | 0.193 | 0.0426 | 0.0671 |
| ZNF185 (zinc finger protein 185 with LIM domain) | 0.197 | 0.664 | 0.544 | 0.0683 | 0.191 |
| KCNJ9 (potassium inwardly rectifying channel subfamily J member 9) | 0.0834 | 0.124 | 0.459 | 0.0376 | 0.0679 |
| ZCCHC2 (zinc finger CCHC-type containing 2) | 0.202 | 0.131 | 0.304 | 0.0408 | 0.319 |
| S100PBP (S100P binding protein) | 0.119 | 0.172 | 0.403 | 0.0329 | 0.104 |
| FLACC1 (flagellum associated containing coiled-coil domains 1) | 0.158 | 0.219 | 0.306 | 0.0374 | 0.189 |
| IL32 (interleukin 32) | 0.14 | 0.3 | 0.319 | 0.0257 | 0.141 |
| VAV3 (vav guanine nucleotide exchange factor 3) | 0.0615 | 0.108 | 0.272 | 0.0204 | 0.212 |
| GPATCH3 (G-patch domain containing 3) | 0.122 | 0.143 | 0.294 | 0.0294 | 0.275 |
| COL11A1 (collagen type XI alpha 1 chain) | 0.158 | 0.457 | 0.255 | 0.0443 | 0.156 |
| SCNN1G (sodium channel epithelial 1 subunit gamma) | 0.0751 | 0.119 | 0.248 | 0.00483 | 0.0512 |
| AIPL1 (AIP like 1 HSP90 co-chaperone) | 0.0702 | 0.0489 | 0.214 | 0.0173 | 0.138 |
| RBM41 (RNA binding motif protein 41) | 0.0939 | 0.161 | 0.33 | 0.0232 | 0.237 |
